Source: patent US20120121581A1 (XOMA TECHNOLOGY, published 2012)
No constants are given. Whether binding was seen depends on the method and setting. Some entries that bind do so weakly or less than the wild type.

By UniProt entry, the sequences of proteins in these tests, tags left out. Residues count along the entry.
BoNT/A light-chain heavy-chain N-terminus (LCHN) domain (P0DPI0, residues 1-870): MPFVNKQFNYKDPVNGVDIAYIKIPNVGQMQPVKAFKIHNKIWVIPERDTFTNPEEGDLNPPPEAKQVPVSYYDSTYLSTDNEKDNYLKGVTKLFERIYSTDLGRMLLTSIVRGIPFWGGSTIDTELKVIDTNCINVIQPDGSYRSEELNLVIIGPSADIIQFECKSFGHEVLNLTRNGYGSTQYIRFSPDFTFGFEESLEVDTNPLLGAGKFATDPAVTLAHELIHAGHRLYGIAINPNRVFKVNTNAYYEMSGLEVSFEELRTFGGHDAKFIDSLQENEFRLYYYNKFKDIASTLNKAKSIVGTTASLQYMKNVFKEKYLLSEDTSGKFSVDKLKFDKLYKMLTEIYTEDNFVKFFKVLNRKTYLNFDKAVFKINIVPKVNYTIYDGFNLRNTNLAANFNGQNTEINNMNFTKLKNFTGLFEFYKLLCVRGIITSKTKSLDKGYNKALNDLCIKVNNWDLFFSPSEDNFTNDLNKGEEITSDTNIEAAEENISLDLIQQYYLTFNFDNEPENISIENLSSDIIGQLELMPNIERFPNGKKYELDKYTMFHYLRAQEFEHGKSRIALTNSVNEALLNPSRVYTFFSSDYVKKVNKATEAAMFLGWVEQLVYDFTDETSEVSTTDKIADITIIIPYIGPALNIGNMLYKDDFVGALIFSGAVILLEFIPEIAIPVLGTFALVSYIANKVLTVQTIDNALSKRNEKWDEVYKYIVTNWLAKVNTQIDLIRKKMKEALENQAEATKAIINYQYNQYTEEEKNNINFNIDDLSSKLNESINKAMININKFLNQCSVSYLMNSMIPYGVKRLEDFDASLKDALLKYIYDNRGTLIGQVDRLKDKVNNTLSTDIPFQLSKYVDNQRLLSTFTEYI
BoNT/A heavy-chain C-terminus (HCC) domain (P0DPI0, residues 1093-1296): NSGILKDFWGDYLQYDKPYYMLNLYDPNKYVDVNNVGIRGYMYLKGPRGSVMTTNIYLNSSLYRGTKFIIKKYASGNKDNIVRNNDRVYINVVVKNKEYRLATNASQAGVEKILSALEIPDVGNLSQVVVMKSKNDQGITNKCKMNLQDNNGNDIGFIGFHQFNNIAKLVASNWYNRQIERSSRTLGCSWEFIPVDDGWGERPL

What was measured:
[1] = target: BoNT/A heavy-chain C-terminus (HCC) domain (UniProt P0DPI0); experiment: toxin domain ELISA of the 1:1:1 co-formulated mixture
[2] = target: BoNT/A heavy-chain C-terminus (HCC) domain (UniProt P0DPI0); experiment: ELISA, toxin domain coated on plate (method qualification)
[3] = target: BoNT/A heavy-chain C-terminus (HCC) domain (UniProt P0DPI0); experiment: toxin domain binding ELISA of the mixture after 24 months at 2-8 C
[4] = target: BoNT/A heavy-chain C-terminus (HCC) domain (UniProt P0DPI0); experiment: ELISA, toxin domain coated on plate, anti-human IgG Fc-HRP detection
[5] = target: BoNT/A light-chain heavy-chain N-terminus (LCHN) domain (UniProt P0DPI0); experiment: toxin domain ELISA of the 1:1:1 co-formulated mixture
[6] = target: BoNT/A light-chain heavy-chain N-terminus (LCHN) domain (UniProt P0DPI0); experiment: ELISA, toxin domain coated on plate (method qualification)
[7] = target: BoNT/A light-chain heavy-chain N-terminus (LCHN) domain (UniProt P0DPI0); experiment: toxin domain binding ELISA of the mixture after 24 months at 2-8 C
[8] = target: BoNT/A light-chain heavy-chain N-terminus (LCHN) domain (UniProt P0DPI0); experiment: ELISA, toxin domain coated on plate, anti-human IgG Fc-HRP detection

Measured: binding

B1: ABT02 (antibody, V domains shown)
VH: QVQLVQSGGGVVHPGRSLKLSCAGSGFTFSDYDMHWVRQAPGKGLEWVAVMWFDGTEKYSAESVKGRFTISRDNSKNTLFLQMNSLRADDTAVYYCAREPDWLLWGDRGALDVWGQGTTVTVSS
VL: DIVMTQSPSTLSASVGDRVTITCWASQSISSRLAWYQQKPGKAPKLLMYEATSLGSGVPSRFSGSGSGTEFTLTISSLQPDDFAAYYCQHYDTYPYTFGQGTKLEIK
binds: [1] | [2] | [3] | [4]

B2: ABT03 (antibody, V domains shown)
VH: QVQLQQSGGGLVQPGGSLRLSCAASGFTFSNYAMTWVRQAPGKGLEWVSSISVGGSDTYYADSVKGRFTVSRDNSKNTLLLQMNSLRAEDTAVYYCAKVRTKYCSSLSCFAGFDSWGQGTRVTVSS
VL: DVVMTQSPSSLSASVGDRVTITCRASQSISSYLHWYQQKPGKAPTLLISDASSSQSGVPSRFSGSRFGTDFTLTISSLQPEDFATYYCQQSYSTRALTFGGGTKVEIK
binds: [5] | [6] | [7] | [8]
